According to the supplement of paper PMC10032668:
The list shows a part of the results. Only hits are listed; about a third recur on repeated control peptides.

By UniProt entry, the sequences of proteins in these tests, tags left out.
DLAT, P10515, UniProt P10515, whole entry: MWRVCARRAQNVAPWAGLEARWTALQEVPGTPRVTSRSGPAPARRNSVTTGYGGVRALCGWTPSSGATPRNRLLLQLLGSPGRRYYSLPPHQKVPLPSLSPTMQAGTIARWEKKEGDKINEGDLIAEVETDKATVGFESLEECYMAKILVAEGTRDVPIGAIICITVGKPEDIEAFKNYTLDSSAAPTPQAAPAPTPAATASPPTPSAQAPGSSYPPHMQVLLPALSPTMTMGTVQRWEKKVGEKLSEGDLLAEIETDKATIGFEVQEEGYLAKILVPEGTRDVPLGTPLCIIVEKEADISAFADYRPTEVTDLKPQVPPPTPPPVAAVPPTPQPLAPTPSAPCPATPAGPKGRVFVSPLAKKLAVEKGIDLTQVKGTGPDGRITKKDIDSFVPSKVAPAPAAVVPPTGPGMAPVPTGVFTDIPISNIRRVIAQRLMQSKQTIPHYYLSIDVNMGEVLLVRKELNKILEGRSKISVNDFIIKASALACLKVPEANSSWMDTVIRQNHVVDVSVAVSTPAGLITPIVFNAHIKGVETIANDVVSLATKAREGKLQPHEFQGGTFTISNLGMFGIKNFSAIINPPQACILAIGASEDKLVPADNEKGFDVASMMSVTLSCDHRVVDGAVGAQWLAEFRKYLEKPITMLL
EIF3D, O15371, UniProt O15371, whole entry: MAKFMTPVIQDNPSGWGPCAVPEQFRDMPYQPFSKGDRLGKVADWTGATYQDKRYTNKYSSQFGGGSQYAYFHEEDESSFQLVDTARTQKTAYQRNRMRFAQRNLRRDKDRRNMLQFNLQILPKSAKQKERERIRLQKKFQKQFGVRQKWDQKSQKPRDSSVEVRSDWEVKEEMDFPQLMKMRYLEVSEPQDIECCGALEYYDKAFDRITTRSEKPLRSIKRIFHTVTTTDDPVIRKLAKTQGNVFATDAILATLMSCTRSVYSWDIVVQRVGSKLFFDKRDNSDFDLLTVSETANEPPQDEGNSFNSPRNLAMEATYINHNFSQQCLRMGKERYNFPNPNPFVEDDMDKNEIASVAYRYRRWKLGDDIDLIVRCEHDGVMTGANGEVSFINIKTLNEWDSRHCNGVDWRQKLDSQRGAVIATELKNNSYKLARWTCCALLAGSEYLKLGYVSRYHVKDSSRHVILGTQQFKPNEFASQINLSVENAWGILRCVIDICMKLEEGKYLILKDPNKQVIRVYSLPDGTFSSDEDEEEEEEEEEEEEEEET
MORF4L2, Q15014, UniProt Q15014, whole entry: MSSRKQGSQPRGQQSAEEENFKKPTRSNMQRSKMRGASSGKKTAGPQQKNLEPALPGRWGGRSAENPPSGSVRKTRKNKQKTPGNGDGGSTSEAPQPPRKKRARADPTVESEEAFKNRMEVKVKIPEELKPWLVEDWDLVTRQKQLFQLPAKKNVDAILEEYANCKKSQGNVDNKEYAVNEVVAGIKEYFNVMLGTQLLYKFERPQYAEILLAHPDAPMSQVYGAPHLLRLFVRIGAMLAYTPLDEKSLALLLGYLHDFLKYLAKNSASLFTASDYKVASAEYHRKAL
COX6C, P09669, UniProt P09669, whole entry: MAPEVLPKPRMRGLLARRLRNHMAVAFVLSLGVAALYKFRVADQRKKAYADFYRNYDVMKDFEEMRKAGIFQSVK
HUWE1, Q7Z6Z7, UniProt Q7Z6Z7, whole entry: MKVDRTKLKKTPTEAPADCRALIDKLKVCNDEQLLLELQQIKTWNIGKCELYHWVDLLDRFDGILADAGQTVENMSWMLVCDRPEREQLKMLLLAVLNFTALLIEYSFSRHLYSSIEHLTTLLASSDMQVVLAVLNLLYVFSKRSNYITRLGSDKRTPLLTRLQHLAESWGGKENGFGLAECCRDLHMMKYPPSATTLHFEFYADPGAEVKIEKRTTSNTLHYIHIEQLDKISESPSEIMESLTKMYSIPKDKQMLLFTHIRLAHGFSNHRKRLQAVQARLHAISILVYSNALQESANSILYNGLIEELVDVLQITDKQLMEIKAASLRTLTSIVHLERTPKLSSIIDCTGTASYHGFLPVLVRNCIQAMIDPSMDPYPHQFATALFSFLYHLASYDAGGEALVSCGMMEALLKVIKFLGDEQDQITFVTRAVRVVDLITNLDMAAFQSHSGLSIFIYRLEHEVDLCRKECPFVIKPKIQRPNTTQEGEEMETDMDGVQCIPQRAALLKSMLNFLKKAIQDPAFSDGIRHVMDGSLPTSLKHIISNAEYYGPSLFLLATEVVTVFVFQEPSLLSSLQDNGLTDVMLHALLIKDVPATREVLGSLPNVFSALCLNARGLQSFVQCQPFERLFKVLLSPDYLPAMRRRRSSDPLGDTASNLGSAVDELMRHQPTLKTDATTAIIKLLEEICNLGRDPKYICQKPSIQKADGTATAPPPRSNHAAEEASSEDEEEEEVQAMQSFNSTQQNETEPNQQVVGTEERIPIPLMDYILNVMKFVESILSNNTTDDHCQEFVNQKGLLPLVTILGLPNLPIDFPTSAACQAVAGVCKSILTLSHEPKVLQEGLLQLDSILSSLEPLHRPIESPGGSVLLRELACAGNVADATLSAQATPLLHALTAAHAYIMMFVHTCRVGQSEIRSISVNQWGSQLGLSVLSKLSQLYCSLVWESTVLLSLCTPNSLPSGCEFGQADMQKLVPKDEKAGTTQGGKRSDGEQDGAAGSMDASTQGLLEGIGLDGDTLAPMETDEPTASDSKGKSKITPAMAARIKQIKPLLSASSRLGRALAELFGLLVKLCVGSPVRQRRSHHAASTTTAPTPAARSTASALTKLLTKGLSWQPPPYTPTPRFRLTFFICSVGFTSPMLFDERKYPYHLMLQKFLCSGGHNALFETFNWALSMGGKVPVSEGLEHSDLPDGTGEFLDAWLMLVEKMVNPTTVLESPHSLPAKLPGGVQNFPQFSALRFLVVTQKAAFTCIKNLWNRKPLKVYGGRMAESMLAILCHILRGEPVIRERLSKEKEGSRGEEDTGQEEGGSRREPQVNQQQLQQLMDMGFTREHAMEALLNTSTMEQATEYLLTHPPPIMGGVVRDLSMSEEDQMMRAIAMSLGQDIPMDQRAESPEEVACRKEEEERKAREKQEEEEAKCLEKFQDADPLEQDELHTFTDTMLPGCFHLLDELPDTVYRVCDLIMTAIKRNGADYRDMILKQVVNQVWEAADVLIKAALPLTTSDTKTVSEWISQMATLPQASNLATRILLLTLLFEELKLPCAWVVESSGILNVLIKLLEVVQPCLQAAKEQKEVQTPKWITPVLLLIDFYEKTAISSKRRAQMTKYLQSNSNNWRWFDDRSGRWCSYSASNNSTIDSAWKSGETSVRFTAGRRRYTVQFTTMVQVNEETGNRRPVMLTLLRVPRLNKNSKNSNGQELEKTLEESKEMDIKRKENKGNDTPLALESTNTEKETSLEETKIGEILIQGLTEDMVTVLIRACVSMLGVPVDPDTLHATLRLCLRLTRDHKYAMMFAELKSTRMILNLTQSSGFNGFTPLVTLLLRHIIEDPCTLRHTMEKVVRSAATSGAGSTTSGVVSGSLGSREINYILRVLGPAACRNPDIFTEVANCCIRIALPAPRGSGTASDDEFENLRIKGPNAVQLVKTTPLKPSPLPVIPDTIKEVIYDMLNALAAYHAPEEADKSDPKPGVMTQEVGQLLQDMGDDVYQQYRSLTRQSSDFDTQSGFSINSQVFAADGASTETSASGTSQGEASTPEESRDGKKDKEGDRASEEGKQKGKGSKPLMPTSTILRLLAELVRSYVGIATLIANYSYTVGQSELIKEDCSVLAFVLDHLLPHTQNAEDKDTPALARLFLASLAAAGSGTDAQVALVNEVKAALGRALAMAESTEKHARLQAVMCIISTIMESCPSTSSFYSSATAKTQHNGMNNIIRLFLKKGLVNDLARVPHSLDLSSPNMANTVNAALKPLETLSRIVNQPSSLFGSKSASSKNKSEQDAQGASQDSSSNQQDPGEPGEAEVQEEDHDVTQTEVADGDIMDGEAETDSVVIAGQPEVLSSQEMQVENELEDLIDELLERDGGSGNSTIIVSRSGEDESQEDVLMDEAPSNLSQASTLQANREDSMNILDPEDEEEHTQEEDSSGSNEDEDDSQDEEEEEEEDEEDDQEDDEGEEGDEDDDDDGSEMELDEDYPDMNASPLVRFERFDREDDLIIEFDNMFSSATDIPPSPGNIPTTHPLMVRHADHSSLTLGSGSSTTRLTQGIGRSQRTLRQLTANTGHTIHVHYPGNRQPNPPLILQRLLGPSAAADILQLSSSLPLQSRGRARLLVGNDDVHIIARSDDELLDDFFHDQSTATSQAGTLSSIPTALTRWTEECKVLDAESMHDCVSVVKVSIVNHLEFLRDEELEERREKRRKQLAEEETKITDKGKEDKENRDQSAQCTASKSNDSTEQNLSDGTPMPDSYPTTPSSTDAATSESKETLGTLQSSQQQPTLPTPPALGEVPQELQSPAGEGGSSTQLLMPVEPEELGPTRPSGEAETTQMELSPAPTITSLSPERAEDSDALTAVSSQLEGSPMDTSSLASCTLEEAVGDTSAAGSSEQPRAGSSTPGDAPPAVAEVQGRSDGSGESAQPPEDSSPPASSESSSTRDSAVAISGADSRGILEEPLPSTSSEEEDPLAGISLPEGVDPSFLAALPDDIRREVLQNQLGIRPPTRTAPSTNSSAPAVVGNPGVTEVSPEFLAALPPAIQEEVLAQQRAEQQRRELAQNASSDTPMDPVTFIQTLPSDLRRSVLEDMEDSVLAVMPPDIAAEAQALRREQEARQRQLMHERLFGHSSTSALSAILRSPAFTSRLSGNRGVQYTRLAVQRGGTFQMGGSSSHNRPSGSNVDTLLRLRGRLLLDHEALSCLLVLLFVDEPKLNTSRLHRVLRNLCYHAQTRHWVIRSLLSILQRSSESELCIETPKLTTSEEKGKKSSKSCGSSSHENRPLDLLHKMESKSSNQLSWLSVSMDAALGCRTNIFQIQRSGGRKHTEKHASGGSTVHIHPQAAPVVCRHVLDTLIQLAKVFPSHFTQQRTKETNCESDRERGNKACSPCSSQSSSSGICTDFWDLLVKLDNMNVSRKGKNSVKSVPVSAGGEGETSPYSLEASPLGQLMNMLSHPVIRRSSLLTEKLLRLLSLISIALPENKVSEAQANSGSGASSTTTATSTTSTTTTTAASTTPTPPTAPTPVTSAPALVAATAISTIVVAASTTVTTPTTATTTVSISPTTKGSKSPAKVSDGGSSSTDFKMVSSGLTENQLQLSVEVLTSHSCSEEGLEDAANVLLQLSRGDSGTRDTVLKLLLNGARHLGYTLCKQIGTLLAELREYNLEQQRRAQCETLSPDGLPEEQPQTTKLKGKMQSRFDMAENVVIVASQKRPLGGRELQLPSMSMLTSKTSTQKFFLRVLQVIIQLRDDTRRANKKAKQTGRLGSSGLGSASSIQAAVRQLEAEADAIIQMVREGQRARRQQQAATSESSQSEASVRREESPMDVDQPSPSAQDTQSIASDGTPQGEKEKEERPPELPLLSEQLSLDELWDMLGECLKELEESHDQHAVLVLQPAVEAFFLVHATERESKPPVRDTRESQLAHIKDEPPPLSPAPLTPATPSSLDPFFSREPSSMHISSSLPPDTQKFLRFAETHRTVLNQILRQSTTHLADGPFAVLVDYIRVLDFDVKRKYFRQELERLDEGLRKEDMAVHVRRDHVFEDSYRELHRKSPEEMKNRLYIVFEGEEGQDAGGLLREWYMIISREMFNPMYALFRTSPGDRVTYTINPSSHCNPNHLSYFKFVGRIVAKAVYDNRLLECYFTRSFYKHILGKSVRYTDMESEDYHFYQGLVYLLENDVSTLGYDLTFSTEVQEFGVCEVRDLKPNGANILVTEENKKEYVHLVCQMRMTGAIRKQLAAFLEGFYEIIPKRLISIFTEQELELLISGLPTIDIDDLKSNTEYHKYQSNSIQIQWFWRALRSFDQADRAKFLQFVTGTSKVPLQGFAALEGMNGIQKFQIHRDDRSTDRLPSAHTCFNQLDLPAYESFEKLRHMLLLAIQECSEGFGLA
RFC4, P35249, UniProt P35249, whole entry: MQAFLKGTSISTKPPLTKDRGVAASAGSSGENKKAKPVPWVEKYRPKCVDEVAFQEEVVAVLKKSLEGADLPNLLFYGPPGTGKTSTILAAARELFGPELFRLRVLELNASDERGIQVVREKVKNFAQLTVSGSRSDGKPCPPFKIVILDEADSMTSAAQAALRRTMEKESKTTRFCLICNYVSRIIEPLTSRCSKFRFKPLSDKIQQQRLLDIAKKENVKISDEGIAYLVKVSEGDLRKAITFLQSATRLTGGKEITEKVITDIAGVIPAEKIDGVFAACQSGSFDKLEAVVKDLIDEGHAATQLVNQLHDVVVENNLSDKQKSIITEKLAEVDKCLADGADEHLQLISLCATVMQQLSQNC

What was measured:
Assay in all cases: PRISMA enrichment of interactor (LFQ) in peptide spot vs all other peptide spots (log2 fold change); higher = stronger / more specific binding of the interactor to the peptide
[1] = target: CHAMP1, Q96JM3
Method: (§1)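 PRISMA: 15-aa overlapping tiles (offset 8 aa) of 60 microproteins, plus SOS1/GLUT1 control peptides, were spot-synthesized on cellulose membranes in triplicate. Membranes were incubated with benzonase-treated HEK293T lysate, and bound proteins were identified by LC-MS/MS with LFQ. Enrichment is the log2 fold change of each protein in one spot versus all other spots. Only interactors passing the significance cutoff are listed.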

[2] = target: DLAT, P10515
Method: as §1

[3] = target: MPST, P25325
Method: as §1

[4] = target: USP34, Q70CQ2
Method: as §1

[5] = target: CHEK1, O14757
Method: as §1

[6] = target: DNAJB1, P25685
Method: as §1

[7] = target: EIF3D, O15371
Method: as §1

[8] = target: FYTTD1, Q96QD9
Method: as §1

[9] = target: GLO1, Q04760
Method: as §1

[10] = target: MMS19, Q96T76
Method: as §1

[11] = target: MORF4L2, Q15014
Method: as §1

[12] = target: MRPS2, Q9Y399
Method: as §1

[13] = target: MRPS35, P82673
Method: as §1

[14] = target: NOB1, Q9ULX3
Method: as §1

[15] = target: NXF1, Q9UBU9
Method: as §1

[16] = target: ODF2, Q5BJF6
Method: as §1

[17] = target: PPIL2, Q13356
Method: as §1

[18] = target: RPP25L, Q8N5L8
Method: as §1

[19] = target: SAE1, Q9UBE0
Method: as §1

[20] = target: SAP18, O00422
Method: as §1

[21] = target: SIRT1, Q96EB6
Method: as §1

[22] = target: SND1, Q7KZF4
Method: as §1

[23] = target: TK1, P04183
Method: as §1

[24] = target: XRN1, Q8IZH2
Method: as §1

[25] = target: YTHDF1, Q9BYJ9
Method: as §1

[26] = target: YWHAZ, P63104
Method: as §1

[27] = target: hCG_1984214
Method: as §1

[28] = target: COL4A3BP, Q9Y5P4
Method: as §1

[29] = target: COX6C, P09669
Method: as §1

[30] = target: EIF2AK2, P19525
Method: as §1

[31] = target: HUWE1, Q7Z6Z7
Method: as §1

[32] = target: L2HGDH, Q9H9P8
Method: as §1

[33] = target: NUP133, Q8WUM0
Method: as §1

[34] = target: PRIM1, P49642
Method: as §1

[35] = target: RFC4, P35249
Method: as §1

[36] = target: SMPD4, Q9NXE4
Method: as §1

Q: What does the source list for ALLRQGRQLRYTDRD [MIEF-MP]?
A: PRISMA enrichment of interactor (log2) [1]: 5.52; PRISMA enrichment of interactor (log2) [2]: 4.86; PRISMA enrichment of interactor (log2) [3]: 4.02; PRISMA enrichment of interactor (log2) [4]: 4.93

Q: Which results are given for MAGTGHPLPRLFTTK [RP11-140K17.3_2]?
A: PRISMA enrichment of interactor (log2) [5]: 5.25; PRISMA enrichment of interactor (log2) [6]: 4.65; PRISMA enrichment of interactor (log2) [7]: 5.09; PRISMA enrichment of interactor (log2) [8]: 7.39; PRISMA enrichment of interactor (log2) [9]: 4.73; PRISMA enrichment of interactor (log2) [10]: 8.27; PRISMA enrichment of interactor (log2) [11]: 4.93; PRISMA enrichment of interactor (log2) [12]: 5.01; PRISMA enrichment of interactor (log2) [13]: 4.92; PRISMA enrichment of interactor (log2) [14]: 4.71; PRISMA enrichment of interactor (log2) [15]: 4.88; PRISMA enrichment of interactor (log2) [16]: 7.01; PRISMA enrichment of interactor (log2) [17]: 5.6; PRISMA enrichment of interactor (log2) [18]: 3.9; PRISMA enrichment of interactor (log2) [19]: 5.51; PRISMA enrichment of interactor (log2) [20]: 5.21; PRISMA enrichment of interactor (log2) [21]: 6.39; PRISMA enrichment of interactor (log2) [22]: 5.62; PRISMA enrichment of interactor (log2) [23]: 6.18; PRISMA enrichment of interactor (log2) [24]: 5.41; PRISMA enrichment of interactor (log2) [25]: 4.57; PRISMA enrichment of interactor (log2) [26]: 5.39; PRISMA enrichment of interactor (log2) [27]: 4.61

Q: What does the source list for MLTLRALQLSLPTKI [ZEB2]?
A: PRISMA enrichment of interactor (log2) [5]: 5.56; PRISMA enrichment of interactor (log2) [28]: 4.28; PRISMA enrichment of interactor (log2) [29]: 6.09; PRISMA enrichment of interactor (log2) [30]: 5.29; PRISMA enrichment of interactor (log2) [31]: 4.92; PRISMA enrichment of interactor (log2) [32]: 4.15; PRISMA enrichment of interactor (log2) [33]: 8.39; PRISMA enrichment of interactor (log2) [34]: 4.53; PRISMA enrichment of interactor (log2) [35]: 7.98; PRISMA enrichment of interactor (log2) [36]: 5.87
